Results as given in PubChem BioAssay AID540256 (National Center for Advancing Translational Sciences (NCATS), 2011).
In all, about 300,000 compounds went through this assay and about 3,700 (1.2%) were called active. The inconclusive results got no clear call from the source; some entries with a clear call stand among them for comparison. Calls come from the whole dose curve; tested in HEK293 cells. A potency beside an inconclusive call is a rough fit, not a confirmed value.

assay: qHTS for Inhibitors of binding or entry into cells for Lassa Virus; settings: Lassa virus pseudotype entry inhibition, cell reporter; series mostly up to 37.9 µM; note: nearly all actives have a fitted effect of over 50% in size
Potency is the fitted concentration of half-maximal effect.

Row | SMILES | Potency
1 | C=CCN(CC(=O)Nc1cccnc1)S(=O)(=O)c1ccc(Cl)cc1 | inconclusive: 22.4 µM [inhibitor, partial curve, poor fit]
2 | COc1ccc(NC(=S)N(CCCN2CCC(C)CC2)Cc2cccs2)cc1Cl | inconclusive: 35.5 µM [inhibitor, single point]
3 | O=C(Cc1ccccc1)NC1CC(=O)N(c2ccc3c(c2)OCCO3)C1 (stereo unspecified) | inactive
4 | Cn1nc(C(=O)OCCN2C(=O)c3ccccc3C2=O)c2ccccc2c1=O | inconclusive: 6.51 µM [activator, single point]
5 | CC(C)CC(COCc1ccc(Cl)cc1)N1CCN(C(=O)c2ccc(C(F)(F)F)cc2)CCC1=O (stereo unspecified) | inconclusive: 13 µM [inhibitor, partial curve]
6 | Cc1ccc(NC(=O)COc2ccccc2C=O)cc1Cl | inconclusive: 2 µM [activator, full curve, poor fit]
7 | Nc1cc(Cl)ccc1C(=O)OCC(=O)NC(=O)NCc1ccccc1 | inconclusive: 16.4 µM [inhibitor, partial curve]
8 | CC1=NN(c2ccccc2)C(=O)/C1=C/c1ccc[nH]1 | inconclusive: 3.98 µM [activator, full curve, poor fit]
9 | CC(=NNC(=O)c1ccncc1)c1ccccc1O | inconclusive: 3.16 µM [inhibitor, single point]
10 | O=c1c2ccccc2[nH]c(=S)n1CCCN1CCN(c2ccccc2)CC1 | inconclusive: 2.82 µM [inhibitor, full curve, poor fit]
11 | CN(C)c1ccc(-c2nc(-c3ccncc3)no2)cc1[N+](=O)[O-] | inactive
12 | COc1ccccc1NC(=S)N(Cc1ccco1)Cc1cc2cc(C)c(C)cc2[nH]c1=O | inconclusive: 7.31 µM [inhibitor, partial curve, poor fit]
13 | COc1cc(/C=N/N=C(/C(=O)c2ccccc2)c2ccccc2)cc(OC)c1O | inconclusive: 11.6 µM [inhibitor, partial curve]
14 | Cc1oc2c(c(C)cc3oc(=O)c(CC(=O)N[C@@H](CC(C)C)C(=O)O)c(C)c32)c1C | inconclusive: 0.282 µM [activator, full curve, poor fit]
15 | CN1CCN(c2ccc(NC(=O)c3ccc(Cl)cc3)cn2)CC1 | inactive
16 | O=c1c2ccccc2nc(/C=C\c2cccc(Br)c2)n1-c1ccc(O)cc1 | inconclusive: 25.1 µM [inhibitor, single point]
17 | Cc1ccc2c(c1)N(C(=O)N1CCC(C(=O)NC3CCCCCC3)CC1)CCO2 | inactive
18 | CC(C)C1C(C#N)=C(N)Oc2n[nH]c(-c3cccs3)c21 (stereo unspecified) | inconclusive: 0.73 µM [activator, full curve, poor fit]
19 | Cc1ccc(N=C2SC(C(=O)Nc3ccc(OC(F)(F)F)cc3)C(N)=C2C(=O)Nc2c(C)cc(C)cc2C)cc1 (stereo unspecified) | inconclusive: 35.5 µM [inhibitor, partial curve, poor fit]
20 | COc1cc(OC)cc(C(=O)NCc2ccc3c(c2)CCN3C(=O)c2ccccc2)c1 | inconclusive: 35.5 µM [inhibitor, single point]
21 | CC1CCN(C(c2ccc(N(C)C)cc2)c2nnnn2Cc2ccccc2)CC1 (stereo unspecified) | inactive

Quoted from above: compounds 12 to 13
Row | SMILES | Potency
12 | COc1ccccc1NC(=S)N(Cc1ccco1)Cc1cc2cc(C)c(C)cc2[nH]c1=O | inconclusive: 7.31 µM [inhibitor, partial curve, poor fit]
13 | COc1cc(/C=N/N=C(/C(=O)c2ccccc2)c2ccccc2)cc(OC)c1O | inconclusive: 11.6 µM [inhibitor, partial curve]

Next part

Row | SMILES | Potency
22 | CN(C)S(=O)(=O)c1ccc(NC(=O)CN2CCCc3ccccc32)cc1 | inconclusive: 6.31 µM [inhibitor, full curve]
23 | COc1ccccc1CCNC(=O)c1ccoc1C | inconclusive: 4.61 µM [activator, partial curve]
24 | COc1ccc(C)c2sc(N(Cc3cccnc3)C(=O)COc3ccccc3)nc12 | inactive
25 | O=C(c1ccccc1)c1ccc(NCCCn2ccnc2)c([N+](=O)[O-])c1 | inconclusive: 14.1 µM [inhibitor, partial curve, poor fit]
26 | COc1ccc(/C=N/n2cnn(Cc3ccccc3Cl)c2=S)cc1 | inconclusive: 35.5 µM [activator, single point]
27 | Cc1cccc(N(C(=O)c2csnn2)C(C(=O)NC2CCCCC2)c2ccncc2)c1 (stereo unspecified) | inconclusive: 3.55 µM [activator, single point]
28 | O=C(/C=C/c1ccccc1Cl)Nc1ccncc1 | inconclusive: 14.1 µM [activator, partial curve, poor fit]
29 | CCN(CC)S(=O)(=O)c1ccc(N2CCOCC2)c(NC(=O)c2cc3ccccc3oc2=O)c1 | inconclusive: 5.62 µM [inhibitor, single point]
30 | COC(=O)c1ccccc1NC(=S)N(Cc1ccc2c(c1)OCO2)Cc1cc2ccc(OC)cc2[nH]c1=O | inconclusive: 29.1 µM [inhibitor, single point]
31 | COc1ccc(/C=C/C(=O)Nc2cc(F)ccc2C)cc1S(=O)(=O)N1CCOCC1 | inactive
32 | COC(=O)Cn1c2[n+](c3ccccc31)CC(O)CS2 (stereo unspecified) | inconclusive: 7.94 µM [activator, partial curve, poor fit]
33 | O=C1CC2(CCN(C(=O)c3c(F)cccc3Cl)CC2)Oc2ccccc21 | inconclusive: 12.6 µM [inhibitor, partial curve, poor fit]
34 | CCCC(=O)N(c1ccc(OCC)cc1)S(=O)(=O)c1ccc2c3c(cccc13)C(=O)N2C | inconclusive: 6.31 µM [inhibitor, single point]
35 | COc1cccc(CNC(=O)c2n[nH]c3ccccc23)c1 | inconclusive: 35.5 µM [inhibitor, single point]
36 | O=C(N/N=C/c1c[nH]c2ccccc12)c1cc(-c2ccc3ccccc3c2)n[nH]1 | inconclusive: 5.62 µM [inhibitor, full curve, poor fit]
37 | Clc1nc(Cl)c2ncn(-c3ccccc3)c2n1 | inconclusive: 35.5 µM [inhibitor, single point]
38 | COc1cccc(C(=O)Nc2ccc3nc(SCc4ccc(C)cc4)sc3c2)c1 | inactive
39 | O=C(CSc1ccccn1)c1ccc2c(c1)OCO2 | inactive
40 | CN=c1scc(-c2cccs2)n1/N=C/c1ccccc1O | active: 1.26 µM
41 | CN(CC(=O)Nc1ccc(F)cc1)C(=O)COc1ccc(C(=O)c2ccccc2)cc1 | inconclusive: 35.5 µM [inhibitor, single point]
